Results as given in the supplement of paper PMC6411743.
± gives the standard deviation of the averaged measurements. The list shows a part of the results.

Protein sequences, listed by entry. Tags and fused reporters are not part of them. Lines headed by an entry give the natural chain unless they say otherwise; changes in a name come on top.
UniProt P32780: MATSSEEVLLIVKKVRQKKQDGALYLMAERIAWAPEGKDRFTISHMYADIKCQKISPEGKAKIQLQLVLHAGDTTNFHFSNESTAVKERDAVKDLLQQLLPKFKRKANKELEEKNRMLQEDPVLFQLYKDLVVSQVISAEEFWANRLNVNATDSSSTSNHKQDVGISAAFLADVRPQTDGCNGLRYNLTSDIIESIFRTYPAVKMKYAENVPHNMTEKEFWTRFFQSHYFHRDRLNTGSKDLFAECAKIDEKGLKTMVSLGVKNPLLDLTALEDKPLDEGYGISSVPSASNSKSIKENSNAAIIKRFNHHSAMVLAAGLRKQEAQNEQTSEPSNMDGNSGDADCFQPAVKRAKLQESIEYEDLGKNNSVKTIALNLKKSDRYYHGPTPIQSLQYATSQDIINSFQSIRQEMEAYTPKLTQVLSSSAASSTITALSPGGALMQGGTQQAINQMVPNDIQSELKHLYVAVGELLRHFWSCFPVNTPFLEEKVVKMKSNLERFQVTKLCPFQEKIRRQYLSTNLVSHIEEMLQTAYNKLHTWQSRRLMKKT
UniProt P49590: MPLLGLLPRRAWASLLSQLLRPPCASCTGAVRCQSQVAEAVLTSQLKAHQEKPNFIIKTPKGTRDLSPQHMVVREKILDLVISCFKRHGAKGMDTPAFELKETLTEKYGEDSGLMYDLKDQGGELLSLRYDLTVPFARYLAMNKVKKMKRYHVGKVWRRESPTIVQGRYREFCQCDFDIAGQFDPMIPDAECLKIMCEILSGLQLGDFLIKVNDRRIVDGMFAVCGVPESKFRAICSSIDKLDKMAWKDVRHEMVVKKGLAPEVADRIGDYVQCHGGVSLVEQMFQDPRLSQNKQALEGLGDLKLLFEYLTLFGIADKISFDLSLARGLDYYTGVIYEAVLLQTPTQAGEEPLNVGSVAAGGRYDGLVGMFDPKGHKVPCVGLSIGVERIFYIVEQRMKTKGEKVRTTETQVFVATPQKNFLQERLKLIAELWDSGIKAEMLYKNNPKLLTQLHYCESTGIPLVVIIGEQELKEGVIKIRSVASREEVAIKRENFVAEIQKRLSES
UniProt P34897: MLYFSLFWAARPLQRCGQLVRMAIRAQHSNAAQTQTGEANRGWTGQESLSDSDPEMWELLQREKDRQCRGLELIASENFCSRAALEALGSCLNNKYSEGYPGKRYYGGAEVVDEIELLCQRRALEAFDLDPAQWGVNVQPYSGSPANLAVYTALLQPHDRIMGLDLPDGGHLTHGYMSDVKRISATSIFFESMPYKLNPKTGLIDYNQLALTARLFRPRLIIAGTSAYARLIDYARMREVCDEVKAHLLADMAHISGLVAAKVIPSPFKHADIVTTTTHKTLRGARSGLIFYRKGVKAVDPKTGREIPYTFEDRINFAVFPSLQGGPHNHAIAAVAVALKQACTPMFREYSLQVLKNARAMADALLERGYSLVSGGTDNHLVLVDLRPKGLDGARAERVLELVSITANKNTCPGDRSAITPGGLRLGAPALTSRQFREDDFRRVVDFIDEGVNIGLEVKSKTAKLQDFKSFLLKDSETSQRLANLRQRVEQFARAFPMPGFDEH
UniProt P32322: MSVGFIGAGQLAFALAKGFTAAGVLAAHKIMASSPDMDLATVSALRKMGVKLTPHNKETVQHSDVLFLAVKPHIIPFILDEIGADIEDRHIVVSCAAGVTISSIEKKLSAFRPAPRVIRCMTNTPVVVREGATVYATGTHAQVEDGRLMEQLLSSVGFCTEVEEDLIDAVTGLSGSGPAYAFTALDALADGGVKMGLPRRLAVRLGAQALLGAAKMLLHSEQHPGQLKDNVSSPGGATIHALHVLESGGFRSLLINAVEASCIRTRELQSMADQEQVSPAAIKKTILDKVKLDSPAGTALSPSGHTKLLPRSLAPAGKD
UniProt P35606: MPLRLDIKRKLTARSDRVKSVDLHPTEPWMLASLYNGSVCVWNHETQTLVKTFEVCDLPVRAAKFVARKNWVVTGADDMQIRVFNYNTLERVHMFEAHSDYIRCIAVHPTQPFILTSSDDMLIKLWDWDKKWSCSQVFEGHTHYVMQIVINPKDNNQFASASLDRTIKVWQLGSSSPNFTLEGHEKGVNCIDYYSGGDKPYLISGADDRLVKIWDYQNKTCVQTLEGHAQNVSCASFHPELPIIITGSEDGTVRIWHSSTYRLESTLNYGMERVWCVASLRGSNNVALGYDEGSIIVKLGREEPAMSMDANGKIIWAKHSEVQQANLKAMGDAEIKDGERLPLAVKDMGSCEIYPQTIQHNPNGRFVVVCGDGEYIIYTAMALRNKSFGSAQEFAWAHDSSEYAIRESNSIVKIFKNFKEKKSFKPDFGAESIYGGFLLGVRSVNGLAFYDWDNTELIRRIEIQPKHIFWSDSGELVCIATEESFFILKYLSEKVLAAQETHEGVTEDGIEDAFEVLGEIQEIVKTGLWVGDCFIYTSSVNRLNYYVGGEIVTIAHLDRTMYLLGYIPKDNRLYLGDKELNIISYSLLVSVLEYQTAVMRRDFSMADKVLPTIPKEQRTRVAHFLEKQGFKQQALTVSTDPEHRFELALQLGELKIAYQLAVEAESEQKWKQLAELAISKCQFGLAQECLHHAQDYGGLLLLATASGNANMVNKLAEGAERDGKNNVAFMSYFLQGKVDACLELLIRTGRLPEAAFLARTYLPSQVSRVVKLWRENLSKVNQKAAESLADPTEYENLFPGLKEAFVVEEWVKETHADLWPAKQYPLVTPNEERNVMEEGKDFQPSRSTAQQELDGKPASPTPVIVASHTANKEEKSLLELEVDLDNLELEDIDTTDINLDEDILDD
UniProt P30291: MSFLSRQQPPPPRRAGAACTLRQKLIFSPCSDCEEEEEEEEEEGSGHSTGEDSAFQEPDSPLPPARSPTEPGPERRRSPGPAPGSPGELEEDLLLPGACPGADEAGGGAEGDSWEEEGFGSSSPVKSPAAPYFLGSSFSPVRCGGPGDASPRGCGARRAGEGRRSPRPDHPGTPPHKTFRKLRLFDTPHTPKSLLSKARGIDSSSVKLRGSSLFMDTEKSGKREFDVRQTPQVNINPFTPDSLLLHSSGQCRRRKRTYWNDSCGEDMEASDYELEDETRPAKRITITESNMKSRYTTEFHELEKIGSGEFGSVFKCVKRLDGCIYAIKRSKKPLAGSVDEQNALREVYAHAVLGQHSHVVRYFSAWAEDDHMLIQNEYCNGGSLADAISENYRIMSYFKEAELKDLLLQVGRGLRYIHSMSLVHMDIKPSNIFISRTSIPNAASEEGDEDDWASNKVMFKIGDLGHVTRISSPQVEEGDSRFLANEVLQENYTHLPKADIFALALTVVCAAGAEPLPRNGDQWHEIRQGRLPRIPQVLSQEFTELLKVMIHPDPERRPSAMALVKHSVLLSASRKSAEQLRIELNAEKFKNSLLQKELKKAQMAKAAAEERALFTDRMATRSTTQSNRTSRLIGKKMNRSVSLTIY
UniProt P31942: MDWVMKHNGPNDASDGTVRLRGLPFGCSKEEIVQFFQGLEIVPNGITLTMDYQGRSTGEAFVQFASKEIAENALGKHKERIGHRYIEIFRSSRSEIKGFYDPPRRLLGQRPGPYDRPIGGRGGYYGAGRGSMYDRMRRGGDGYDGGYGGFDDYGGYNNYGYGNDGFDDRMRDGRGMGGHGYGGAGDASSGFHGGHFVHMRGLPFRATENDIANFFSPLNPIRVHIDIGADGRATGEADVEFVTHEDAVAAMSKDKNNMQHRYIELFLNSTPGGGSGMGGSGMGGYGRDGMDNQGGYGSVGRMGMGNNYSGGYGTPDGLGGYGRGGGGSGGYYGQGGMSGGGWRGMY
UniProt P49643: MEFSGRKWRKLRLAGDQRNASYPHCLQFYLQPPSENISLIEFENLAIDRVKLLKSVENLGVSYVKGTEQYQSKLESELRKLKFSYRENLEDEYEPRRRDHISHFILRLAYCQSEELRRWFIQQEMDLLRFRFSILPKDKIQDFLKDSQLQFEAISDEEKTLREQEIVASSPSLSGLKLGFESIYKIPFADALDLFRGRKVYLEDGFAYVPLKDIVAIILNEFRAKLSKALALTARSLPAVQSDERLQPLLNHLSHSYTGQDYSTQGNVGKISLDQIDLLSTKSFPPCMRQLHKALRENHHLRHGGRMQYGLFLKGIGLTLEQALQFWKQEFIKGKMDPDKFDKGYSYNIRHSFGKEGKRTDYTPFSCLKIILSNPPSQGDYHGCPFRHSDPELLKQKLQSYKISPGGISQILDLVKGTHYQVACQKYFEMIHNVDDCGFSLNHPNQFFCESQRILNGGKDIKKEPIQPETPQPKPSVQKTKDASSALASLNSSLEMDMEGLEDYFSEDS
UniProt P48507: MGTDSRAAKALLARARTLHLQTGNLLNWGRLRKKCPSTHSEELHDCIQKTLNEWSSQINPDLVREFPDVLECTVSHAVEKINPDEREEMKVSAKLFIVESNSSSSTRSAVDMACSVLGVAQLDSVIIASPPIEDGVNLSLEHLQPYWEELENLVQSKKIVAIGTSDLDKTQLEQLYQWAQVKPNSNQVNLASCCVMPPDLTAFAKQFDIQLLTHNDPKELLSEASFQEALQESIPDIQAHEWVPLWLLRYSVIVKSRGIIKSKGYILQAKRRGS
UniProt P32321: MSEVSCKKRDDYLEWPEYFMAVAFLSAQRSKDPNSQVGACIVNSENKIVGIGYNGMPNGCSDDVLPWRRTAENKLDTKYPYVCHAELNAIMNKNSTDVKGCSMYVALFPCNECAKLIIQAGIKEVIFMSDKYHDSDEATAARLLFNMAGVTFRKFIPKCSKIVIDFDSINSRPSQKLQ
UniProt P36405: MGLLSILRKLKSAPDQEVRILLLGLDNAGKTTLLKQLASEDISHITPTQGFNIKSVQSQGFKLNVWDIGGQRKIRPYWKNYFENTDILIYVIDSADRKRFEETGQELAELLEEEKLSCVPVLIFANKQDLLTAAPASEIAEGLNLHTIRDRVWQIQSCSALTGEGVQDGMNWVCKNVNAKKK
UniProt P30085: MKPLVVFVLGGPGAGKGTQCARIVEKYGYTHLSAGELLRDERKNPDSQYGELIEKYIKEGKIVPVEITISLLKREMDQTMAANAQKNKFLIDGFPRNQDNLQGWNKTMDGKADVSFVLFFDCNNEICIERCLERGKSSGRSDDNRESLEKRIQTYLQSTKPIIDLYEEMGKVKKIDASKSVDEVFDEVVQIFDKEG
UniProt P46063: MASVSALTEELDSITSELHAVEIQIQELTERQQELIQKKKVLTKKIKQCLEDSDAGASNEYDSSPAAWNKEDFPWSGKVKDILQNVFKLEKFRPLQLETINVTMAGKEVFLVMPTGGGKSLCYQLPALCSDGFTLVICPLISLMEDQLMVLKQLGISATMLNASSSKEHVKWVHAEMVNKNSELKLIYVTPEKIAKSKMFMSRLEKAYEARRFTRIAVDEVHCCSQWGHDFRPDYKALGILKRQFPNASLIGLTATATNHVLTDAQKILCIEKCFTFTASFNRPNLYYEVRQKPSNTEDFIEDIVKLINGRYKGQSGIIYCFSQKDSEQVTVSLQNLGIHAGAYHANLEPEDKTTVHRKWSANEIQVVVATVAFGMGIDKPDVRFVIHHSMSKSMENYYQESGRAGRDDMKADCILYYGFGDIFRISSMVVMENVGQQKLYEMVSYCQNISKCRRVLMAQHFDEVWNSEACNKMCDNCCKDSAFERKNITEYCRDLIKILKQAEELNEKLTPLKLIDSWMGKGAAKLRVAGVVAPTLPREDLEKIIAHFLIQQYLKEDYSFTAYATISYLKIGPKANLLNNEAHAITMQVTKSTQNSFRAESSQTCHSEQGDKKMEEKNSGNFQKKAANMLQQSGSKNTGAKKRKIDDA
UniProt P38159: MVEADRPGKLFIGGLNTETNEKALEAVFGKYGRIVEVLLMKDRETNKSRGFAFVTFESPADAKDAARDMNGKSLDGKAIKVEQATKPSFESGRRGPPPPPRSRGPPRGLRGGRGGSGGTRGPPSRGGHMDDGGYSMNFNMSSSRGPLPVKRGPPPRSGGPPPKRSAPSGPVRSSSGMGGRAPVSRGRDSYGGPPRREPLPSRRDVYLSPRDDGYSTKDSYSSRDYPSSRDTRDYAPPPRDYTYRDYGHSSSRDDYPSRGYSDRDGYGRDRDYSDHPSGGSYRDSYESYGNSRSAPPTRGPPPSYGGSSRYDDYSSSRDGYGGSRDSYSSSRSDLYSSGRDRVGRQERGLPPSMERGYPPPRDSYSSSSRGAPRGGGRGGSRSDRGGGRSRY
UniProt P28074: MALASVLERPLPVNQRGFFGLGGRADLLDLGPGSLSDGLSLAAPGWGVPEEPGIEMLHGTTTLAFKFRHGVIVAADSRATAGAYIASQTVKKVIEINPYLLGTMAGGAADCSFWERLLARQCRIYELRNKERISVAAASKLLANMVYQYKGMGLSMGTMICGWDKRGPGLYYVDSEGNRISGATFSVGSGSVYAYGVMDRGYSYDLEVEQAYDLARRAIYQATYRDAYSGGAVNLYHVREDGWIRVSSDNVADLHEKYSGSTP
UniProt P30049: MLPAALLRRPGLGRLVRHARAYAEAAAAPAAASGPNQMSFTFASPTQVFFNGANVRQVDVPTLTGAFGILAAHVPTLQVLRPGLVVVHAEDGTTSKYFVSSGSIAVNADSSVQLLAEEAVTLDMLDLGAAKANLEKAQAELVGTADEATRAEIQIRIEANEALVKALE

Compound: Nc1nc2c(ncn2[C@@H]2O[C@H](COP(=O)(O)OP(=O)(O)OP(=O)(O)O)[C@@H](O)[C@H]2O)c(=O)[nH]1 [guanosine triphosphate]
Assay: NP40-soluble protein abundance relative to vehicle (solubility fold change) (ratio); higher = more soluble protein in presence of GTP
Procedure, shortened: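 Across three independent experiments, values are fold changes against the detergent-processed vehicle for each replicate, based on vsn-normalised intensities. The samples were Jurkat crude lysate treated with eight concentrations (0.1 to 10 mM) for 10 min at room temperature and then 3 min at 37 °C. Lysate was solubilised with 0.8% NP40 and benzonase, ultracentrifuged, and the supernatant analysed by TMT-labelled LC-MS/MS.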

Target | NP40-soluble protein abundance (concentration: 0.1mM) | NP40-soluble protein abundance (concentration: 0.5mM) | NP40-soluble protein abundance (concentration: 1mM) | NP40-soluble protein abundance (concentration: 2mM) | NP40-soluble protein abundance (concentration: 4mM) | NP40-soluble protein abundance (concentration: 6mM) | NP40-soluble protein abundance (concentration: 8mM) | NP40-soluble protein abundance (concentration: 10mM)
UniProt P32780 and related entries | 1.01 ± 0.044 | 1.04 ± 0.066 | 1.05 ± 0.041 | 1.1 ± 0.055 | 1.12 ± 0.089 | 1.12 ± 0.099 | 1.14 ± 0.12 | 1.21 ± 0.095
UniProt P49590 and related entries | 1.34 ± 0.43 | 1.11 ± 0.055 | 1.04 ± 0.03 | 1.16 ± 0.15 | 1.02 ± 0.024 | 0.997 ± 0.056 | 1.05 ± 0.028 | 0.984 ± 0.1
UniProt P34897 and related entries | 1.05 ± 0.04 | 1.04 ± 0.061 | 0.958 ± 0.058 | 0.964 ± 0.059 | 0.981 ± 0.05 | 0.935 ± 0.06 | 0.919 ± 0.029 | 0.8893 ± 0.0077
UniProt P32322 and related entries | 0.991 ± 0.052 | 0.988 ± 0.034 | 1 ± 0.083 | 1.02 ± 0.081 | 1.01 ± 0.06 | 1.01 ± 0.1 | 1.03 ± 0.085 | 1.01 ± 0.093
UniProt P35606 and related entries | 1.04 ± 0.075 | 1.07 ± 0.11 | 0.994 ± 0.089 | 1.04 ± 0.12 | 1.04 ± 0.12 | 1.03 ± 0.12 | 1.01 ± 0.097 | 0.984 ± 0.087
UniProt P30291 and related entries | 1.08 ± 0.062 | 1.14 ± 0.0025 | 1.08 ± 0.034 | 1.17 ± 0.025 | 1.12 ± 0.033 | 1.14 ± 0.092 | 1.12 ± 0.07 | 1.05 ± 0.023
UniProt P45880 and related entries | 0.898 ± 0.021 | 0.964 ± 0.038 | 0.878 ± 0.029 | 0.895 ± 0.031 | 0.86 ± 0.025 | 0.892 ± 0.025 | 0.874 ± 0.057 | 0.867 ± 0.051
UniProt P31942 and related entries | 0.98 ± 0.02 | 1.06 ± 0.02 | 1.08 ± 0.094 | 1.15 ± 0.15 | 1.16 ± 0.2 | 1.22 ± 0.19 | 1.22 ± 0.2 | 1.2 ± 0.18
PRIM2 (UniProt P49643) | 1.01 ± 0.046 | 1.01 ± 0.055 | 1.01 ± 0.052 | 1.01 ± 0.05 | 0.982 ± 0.033 | 0.963 ± 0.025 | 0.961 ± 0.085 | 0.945 ± 0.063
UniProt P45984 and related entries | 1.02 ± 0.14 | 1 ± 0.099 | 0.984 ± 0.069 | 0.971 ± 0.14 | 0.926 ± 0.17 | 0.968 ± 0.24 | 0.965 ± 0.14 | 0.922 ± 0.14
GCLM (UniProt P48507) | 0.924 ± 0.058 | 0.909 ± 0.048 | 0.887 ± 0.057 | 0.876 ± 0.068 | 0.877 ± 0.085 | 0.871 ± 0.069 | 0.833 ± 0.096 | 0.831 ± 0.082
GNPDA1 (UniProt P46926) | 1.05 ± 0.035 | 1.03 ± 0.099 | 0.951 ± 0.041 | 0.933 ± 0.094 | 0.915 ± 0.043 | 0.91 ± 0.061 | 0.8707 ± 0.0069 | 0.817 ± 0.04
UniProt P35658 and related entries | 0.992 ± 0.097 | 0.984 ± 0.1 | 1 ± 0.1 | 1 ± 0.1 | 1.01 ± 0.076 | 1.03 ± 0.083 | 1.09 ± 0.094 | 1.13 ± 0.096
UniProt P32321 and related entries | 0.901 ± 0.02 | 0.941 ± 0.064 | 0.899 ± 0.033 | 0.897 ± 0.024 | 0.879 ± 0.012 | 0.908 ± 0.048 | 0.869 ± 0.033 | 0.885 ± 0.056
CORO1A (UniProt P31146) | 0.993 ± 0.018 | 1.08 ± 0.024 | 1.05 ± 0.034 | 1.02 ± 0.038 | 1.02 ± 0.038 | 1.05 ± 0.035 | 1.07 ± 0.071 | 1.04 ± 0.065
ARL3 (UniProt P36405) | 0.956 ± 0.022 | 0.94 ± 0.045 | 0.891 ± 0.023 | 0.883 ± 0.063 | 0.868 ± 0.024 | 0.882 ± 0.017 | 0.838 ± 0.022 | 0.838 ± 0.036
CMPK1 (UniProt P30085) | 0.939 ± 0.02 | 0.917 ± 0.029 | 0.909 ± 0.044 | 0.873 ± 0.048 | 0.874 ± 0.057 | 0.876 ± 0.04 | 0.869 ± 0.099 | 0.866 ± 0.053
RECQL (UniProt P46063) | 1.05 ± 0.04 | 1.04 ± 0.028 | 0.9693 ± 0.0088 | 0.954 ± 0.036 | 0.951 ± 0.031 | 0.934 ± 0.012 | 0.937 ± 0.023 | 0.895 ± 0.047
UniProt P41743 | 1.06 ± 0.17 | 1.04 ± 0.087 | 0.914 ± 0.077 | 0.924 ± 0.07 | 0.924 ± 0.13 | 0.948 ± 0.11 | 0.892 ± 0.12 | 0.902 ± 0.038
UniProt P36639 and related entries | 0.938 ± 0.039 | 0.975 ± 0.017 | 0.91 ± 0.033 | 0.908 ± 0.058 | 0.86 ± 0.047 | 0.861 ± 0.053 | 0.86 ± 0.084 | 0.809 ± 0.06
ABCD3 (UniProt P28288) | 1.07 ± 0.11 | 1.16 ± 0.14 | 0.98 ± 0.08 | 1.04 ± 0.17 | 1.03 ± 0.16 | 1.01 ± 0.13 | 0.962 ± 0.075 | 0.927 ± 0.098
HPCAL1 (UniProt P37235) | 0.944 ± 0.045 | 0.946 ± 0.056 | 0.932 ± 0.024 | 0.957 ± 0.036 | 0.909 ± 0.083 | 0.922 ± 0.056 | 0.907 ± 0.098 | 0.931 ± 0.088
UniProt P38159 and related entries | 1.02 ± 0.048 | 1.02 ± 0.027 | 1.18 ± 0.036 | 1.29 ± 0.043 | 1.47 ± 0.052 | 1.65 ± 0.1 | 1.8 ± 0.15 | 2.04 ± 0.32
PSMB5 (UniProt P28074) | 1.01 ± 0.12 | 1.09 ± 0.23 | 0.916 ± 0.17 | 1.08 ± 0.29 | 1.15 ± 0.33 | 1.05 ± 0.35 | 0.945 ± 0.14 | 0.99 ± 0.15
UniProt P30049 | 0.898 ± 0.044 | 0.918 ± 0.059 | 1.02 ± 0.11 | 1.03 ± 0.1 | 0.967 ± 0.11 | 1.04 ± 0.096 | 0.995 ± 0.11 | 1.04 ± 0.15
CCT6A (UniProt P40227) | 1.05 ± 0.066 | 1.1 ± 0.14 | 1.08 ± 0.15 | 1.06 ± 0.18 | 0.979 ± 0.13 | 1.03 ± 0.19 | 1.09 ± 0.25 | 0.962 ± 0.18
UniProt P30048 and related entries | 0.968 ± 0.038 | 0.9589 ± 0.0063 | 0.945 ± 0.057 | 0.899 ± 0.03 | 0.894 ± 0.054 | 0.89 ± 0.025 | 0.875 ± 0.038 | 0.839 ± 0.036
UniProt P41227-2 | 0.971 ± 0.12 | 0.979 ± 0.079 | 0.973 ± 0.11 | 0.947 ± 0.079 | 0.97 ± 0.099 | 0.953 ± 0.08 | 0.959 ± 0.1 | 0.969 ± 0.097

A second format for part of the listing above.

| Target | NP40-soluble protein abundance (concentration: 0.1mM) | NP40-soluble protein abundance (concentration: 0.5mM) | NP40-soluble protein abundance (concentration: 1mM) | NP40-soluble protein abundance (concentration: 2mM) | NP40-soluble protein abundance (concentration: 4mM) | NP40-soluble protein abundance (concentration: 6mM) | NP40-soluble protein abundance (concentration: 8mM) | NP40-soluble protein abundance (concentration: 10mM) |
| --- | --- | --- | --- | --- | --- | --- | --- | --- |
| UniProt P35658 and related entries | 0.992 ± 0.097 | 0.984 ± 0.1 | 1 ± 0.1 | 1 ± 0.1 | 1.01 ± 0.076 | 1.03 ± 0.083 | 1.09 ± 0.094 | 1.13 ± 0.096 |
| UniProt P41743 | 1.06 ± 0.17 | 1.04 ± 0.087 | 0.914 ± 0.077 | 0.924 ± 0.07 | 0.924 ± 0.13 | 0.948 ± 0.11 | 0.892 ± 0.12 | 0.902 ± 0.038 |
